At least one structure is not confirmed: it was looked up by name or label, or the drawing left a doubt.
Test system: mucoid CF clinical isolates of PA
Format: cell-based, Pseudomonas aeruginosa
Conditions: isolates marked by black arrows in FIG. 6
Description: The CFU in the inoculum versus that after a 4 day anaerobic incubation are determined.

With `C[C@@H](O)[C@H]1C(=O)N2C(C(=O)O)=C(SCCN=CN)C[C@H]12` [imipenem] the “resistance of 4 clinical isolates” value was “highly resistant”.

— US8557300B2 (priority 2005, dated 2013)
